These are yes or no findings as the source states them, for the method shown. Some entries that bind do so weakly or less than the wild type.
Target: recombinant human PD-1-IgG1.Fc fusion protein (human)
Assay: ELISA; plate coated with PD-L1 at 50 µg/ml, PD1-IgG1.Fc added at 50 µg/ml, detected with HRP goat anti-human IgG.Fc

Sequences of proteins named here, by UniProt entry; tags and fusion partners are left off. A change or cut given only in a name is not applied to a line headed by its entry.
UniProt Q9NZQ7: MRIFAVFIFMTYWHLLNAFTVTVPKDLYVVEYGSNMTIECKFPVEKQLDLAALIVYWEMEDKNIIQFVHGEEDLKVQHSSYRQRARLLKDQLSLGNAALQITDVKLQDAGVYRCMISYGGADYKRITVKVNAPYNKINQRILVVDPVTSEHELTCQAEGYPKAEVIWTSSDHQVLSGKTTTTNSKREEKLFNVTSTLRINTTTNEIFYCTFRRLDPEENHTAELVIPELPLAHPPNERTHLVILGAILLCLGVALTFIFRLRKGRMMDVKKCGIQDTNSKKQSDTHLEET

## recombinant human PD-L1 (from UniProt Q9NZQ7 19-238) (ligand)
  binding: binds

— patent US20170056520A1
